PubChem BioAssay AID504764 | Drosophila RNAi Screening Center – 2011

- Aim: 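Genes whose knock-down alters Notch-dependent transcription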 (primary screen)
- Cell system: Drosophila Kc167 cells
- Knock-down reagent: long dsRNA against Drosophila genes
- Timing: about 5 days (4 days dsRNA, then 24 h after transfection)
- Challenge: transfection of constitutively active membrane-tethered Notch lacking the extracellular domain, read 24 h later
- Read-out: 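Light from a Notch-responsive E(spl)m3 luciferase reporter under active Notch, with control-promoter and no-Notch reporter wells to normalise; raw counts from paired wells a and b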
- Direction: induced reporter light, run 1, well a and induced reporter light, run 1, well b: higher = more light from the Notch target reporter with active Notch; control promoter light, run 1, well a and control promoter light, run 1, well b: higher = more light from the viral control promoter (cell number, transfection, viability); uninduced reporter light, run 1, well a: higher = more light from the Notch target reporter without active Notch
- Rule for the call: 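Hit if the duplicate-averaged log2 ratio of induced to control-promoter light gives a plate-wise z beyond ±2, or induced to uninduced beyond ±1.8; weak-control or discordant-duplicate wells dropped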
- Calls: active = modifier hit (raised or lowered Notch signal); inactive = not a hit
The deposit covers about 22,000 reagents; below is an unselected part of those that have a named target and a result. Over the whole deposit, 403 (1.9%) got an active call. 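Unnormalised raw counts per well; ratio z-scores behind the hit calls and whether each hit raises or lowers signal are not deposited.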 Names joined by + are all predicted targets of the reagent. Not given: the amount of reagent.

| predicted target | amplicon | induced reporter light, run 1, well a | induced reporter light, run 1, well b | control promoter light, run 1, well a | control promoter light, run 1, well b | uninduced reporter light, run 1, well a | Outcome |
| --- | --- | --- | --- | --- | --- | --- | --- |
| Pabp2 | DRSC07501 | 22305 | 28225 | 36355 | 38135 | 2235 | inactive |
| CG31407 | DRSC12761 | 1.85e5 | 1.49e5 | 2.27e5 | 1.81e5 | 12182 | inactive |
| ZnT86D (Zinc transporter 86D) | DRSC16091 | 86700 | 1.06e5 | 1.08e5 | 77780 | 7040 | inactive |
| CG5326 | DRSC13568 | 65245 | 65440 | 78250 | 75610 | 9355 | inactive |
| CG5326 | DRSC15770 | 1.66e5 | 1.69e5 | 1.94e5 | 1.95e5 | 15215 | inactive |
| CG32750 | DRSC18848 | 1.24e5 | 1.23e5 | 1.82e5 | 1.92e5 | 9255 | inactive |
| Dsp1 (Dorsal switch protein 1) | DRSC20315 | 1430 | 1000 | 1060 | 1240 | 1150 | inactive |
| lbm (late bloomer) | DRSC07643 | 1.78e5 | 1.76e5 | 1.81e5 | 1.65e5 | 16165 | inactive |
| Charon | DRSC00679 | 1.79e5 | 1.92e5 | 1.83e5 | 2.03e5 | 16050 | inactive |
| CG31862 | DRSC01245 | 1.15e5 | 1.02e5 | 1.56e5 | 1.67e5 | 7645 | inactive |
| kl-2 (male fertility factor kl2) | DRSC21136 | 1.09e5 | 74035 | 93395 | 1.03e5 | 8670 | inactive |
| Spf30 (Splicing factor 30) | DRSC11976 | 1.73e5 | 1.47e5 | 1.16e5 | 1.13e5 | 11505 | inactive |
| Act79B (Actin 79B) | DRSC11604 | 1.54e5 | 1.10e5 | 1.23e5 | 1.25e5 | 12010 | inactive |
| CG12824 | DRSC06173 | 2.14e5 | 2.07e5 | 2.41e5 | 2.65e5 | 20335 | inactive |
| CG12995 | DRSC19515 | 82100 | 66155 | 96845 | 74595 | 12500 | inactive |
| RpL3 + CG6693 | DRSC16097 | 1.79e5 | 1.88e5 | 1.38e5 | 1.36e5 | 13490 | inactive |
| Nrg (Neuroglian) | DRSC17573 | 79045 | 69065 | 94175 | 82130 | 5745 | inactive |
| Nrg (Neuroglian) | DRSC18688 | 1.59e5 | 1.41e5 | 2.19e5 | 2.30e5 | 14742 | inactive |
| CG14280 | DRSC14761 | 1.64e5 | 1.54e5 | 1.65e5 | 1.80e5 | 10275 | inactive |
| CG9815 | DRSC04567 | 1.53e5 | 1.32e5 | 1.08e5 | 1.26e5 | 12500 | inactive |
| mri (mrityu) | DRSC08259 | 80130 | 1.09e5 | 1.44e5 | 1.51e5 | 7925 | inactive |
| Rcc1 (Regulator of chromosome condensation 1) | DRSC09684 | 1.20e5 | 96025 | 69940 | 25845 | 7670 | inactive |
| Nrx-1 (Neurexin 1) | DRSC16184 | 1.79e5 | 1.87e5 | 2.44e5 | 2.34e5 | 13580 | inactive |
| CG18636 | DRSC02685 | 1.18e5 | 1.51e5 | 1.23e5 | 1.31e5 | 12930 | inactive |
| lectin-21Ca | DRSC00541 | 1.40e5 | 1.06e5 | 95325 | 49965 | 9050 | inactive |
| CG31278 | DRSC16051 | 67800 | 85230 | 72250 | 59750 | 3860 | inactive |
| Dis3l2 (Dis3 like 3'-5' exoribonuclease 2) | DRSC08496 | 78870 | 70890 | 1.43e5 | 1.27e5 | 7480 | inactive |
| CG10383 | DRSC02050 | 1.95e5 | 2.17e5 | 1.97e5 | 2.30e5 | 14428 | inactive |
| Fpgs2 (Folylpolyglutamate synthase 2) | DRSC00600 | 1.73e5 | 1.47e5 | 2.61e5 | 1.82e5 | 11832 | inactive |
| CG15198 | DRSC19645 | 1.04e5 | 1.04e5 | 2.05e5 | 1.29e5 | 7785 | inactive |
| Mur82C (Mucin related 82C) | DRSC12011 | 1.34e5 | 1.54e5 | 1.08e5 | 1.11e5 | 17220 | inactive |
| Mur82C (Mucin related 82C) | DRSC12212 | 1.48e5 | 1.33e5 | 1.48e5 | 1.43e5 | 10120 | inactive |
| porin | DRSC03594 | 2.36e5 | 2.46e5 | 1.92e5 | 1.82e5 | 19515 | inactive |
| CG3457 | DRSC18509 | 2.19e5 | 2.28e5 | 3.31e5 | 3.38e5 | 15415 | inactive |
| CG34227 | DRSC06788 | 1.11e5 | 1.14e5 | 1.36e5 | 1.44e5 | 10960 | inactive |
| CG34227 | DRSC07034 | 71025 | 81480 | 90050 | 92390 | 8785 | inactive |
| Synj (Synaptojanin) | DRSC04526 | 2.20e5 | 2.11e5 | 1.65e5 | 1.76e5 | 14078 | inactive |
| CG9263 | DRSC03176 | 1.38e5 | 1.61e5 | 1.57e5 | 1.75e5 | 13655 | inactive |
| gogo (golden goal) | DRSC10070 | 86125 | 1.03e5 | 1.09e5 | 1.29e5 | 6240 | inactive |
| gogo (golden goal) | DRSC10071 | 1.14e5 | 1.24e5 | 1.15e5 | 85630 | 6210 | inactive |
| LManI (Lysosomal alpha-mannosidase I) | DRSC02838 | 1.20e5 | 1.17e5 | 69240 | 90420 | 13542 | inactive |
| CG10348 | DRSC02043 | 50190 | 39980 | 42555 | 47465 | 2525 | inactive |
| CG10348 | DRSC21908 | – | – | – | – | – | inactive |
| Ogdh (Oxoglutarate dehydrogenase) | DRSC09854 | 2.01e5 | 1.44e5 | 1.07e5 | 1.42e5 | 10730 | inactive |
| Ogdh (Oxoglutarate dehydrogenase) | DRSC09855 | 35100 | 36505 | 60095 | 55720 | 1645 | inactive |
| CG5509 | DRSC15822 | 66240 | 64550 | 65410 | 66420 | 3795 | inactive |
| CG11353 | DRSC08182 | 99850 | 1.20e5 | 1.10e5 | 52600 | 11665 | inactive |
| seq (sequoia) | DRSC06863 | 16650 | 16605 | 18500 | 15815 | 3990 | inactive |
| mEFTu2 (mitochondrial translation elongation factor Tu 2) | DRSC06163 | 1.91e5 | 1.82e5 | 1.80e5 | 2.20e5 | 16015 | inactive |
| sbb (scribbler) | DRSC05723 | 80185 | 63540 | 70385 | 62465 | 6225 | inactive |
| sbb (scribbler) | DRSC07676 | 1.08e5 | 1.23e5 | 1.40e5 | 1.32e5 | 8170 | inactive |
| Cyp6d2 (Cytochrome P450 6d2) | DRSC04606 | 1.90e5 | 1.52e5 | 1.33e5 | 1.40e5 | 12245 | inactive |
| caup (caupolican) | DRSC11334 | 32615 | 44270 | 41465 | 37510 | 3350 | inactive |
| Src64B (Src oncogene at 64B) | DRSC08700 | 1.30e5 | 1.23e5 | 1.16e5 | 1.37e5 | 5235 | inactive |
| Cndp2 (Cytosolic non-specific dipeptidase 2) | DRSC04873 | 1.82e5 | 1.44e5 | 1.43e5 | 1.46e5 | 10465 | inactive |
| FIG4 (FIG4 phosphoinositide 5-phosphatase) | DRSC00515 | 1.46e5 | 1.50e5 | 1.69e5 | 1.83e5 | 13770 | inactive |
| Clc (Clathrin light chain) | DRSC11116 | 99370 | 1.22e5 | 65750 | 87615 | 9855 | inactive |
| CG14286 | DRSC14767 | 1.80e5 | 1.78e5 | 2.11e5 | 1.58e5 | 12525 | inactive |
| Hem (HEM-protein) | DRSC11865 | 1.09e5 | 81145 | 1.06e5 | 1.47e5 | 7970 | inactive |
| CG16865 | DRSC01904 | 1.39e5 | 1.74e5 | 1.66e5 | 1.70e5 | 11330 | inactive |
| Rich (RIC1 homolog) | DRSC11607 | 1.12e5 | 1.58e5 | 92595 | 1.08e5 | 11320 | inactive |
| CG9849 | DRSC04573 | 2.25e5 | 1.78e5 | 1.64e5 | 1.81e5 | 16395 | inactive |
| Wdfy2 (WD repeat and FYVE domain containing 2) | DRSC02822 | 2.36e5 | 2.62e5 | 1.78e5 | 1.82e5 | 17845 | inactive |
| Patsas | DRSC02975 | 2.55e5 | 2.34e5 | 2.22e5 | 2.16e5 | 17640 | inactive |

Laid out differently: 3 of the entries above.
predicted target | amplicon | induced reporter light, run 1, well a | induced reporter light, run 1, well b | control promoter light, run 1, well a | control promoter light, run 1, well b | uninduced reporter light, run 1, well a | Outcome
CG18636 | DRSC02685 | 1.18e5 | 1.51e5 | 1.23e5 | 1.31e5 | 12930 | inactive
lectin-21Ca | DRSC00541 | 1.40e5 | 1.06e5 | 95325 | 49965 | 9050 | inactive
CG31278 | DRSC16051 | 67800 | 85230 | 72250 | 59750 | 3860 | inactive
